{"source": "PubChem BioAssay AID1224830 (NIAID, 2016)", "screen": "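Host factors that control LPS-induced TNF expression in human macrophages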 (primary screen)", "cell system": "human THP-1 monocytic leukaemia cells, TNF dual-luciferase reporter clone, PMA-differentiated to macrophage-like cells", "reagent": "siRNA pool against human genes, 50 nM", "duration": "LPS for 4 h, given about 3 days after siRNA transfection", "challenge": "bacterial LPS (TLR4 ligand), 10 ng/ml", "measurement": "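Ratio of firefly to renilla light, scaled to the plate median and expressed as a robust z-score per replicate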", "reading the numbers": "TNF reporter robust z-score: higher = stronger TNF reporter response to LPS", "rule for the call": "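Each well counts as active if its z-score is over 2.8 or under -1.5; controls are left without a call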", "note": "The deposit covers about 18,000 reagents; this is an unselected part. About 2,900 of all reagents (16%) were called active. 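Calls are made per well; low scores hint the gene aids the LPS response, high scores that it dampens it.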 Repeated entries: four replicate wells of each siRNA pool."}
{"target gene":"BRCA2 (BRCA2 DNA repair associated)","TNF reporter robust z-score":-0.86,"outcome":"inactive"}
{"target gene":"BRCA2 (BRCA2 DNA repair associated)","TNF reporter robust z-score":-1.03,"outcome":"inactive"}
{"target gene":"BRCA2 (BRCA2 DNA repair associated)","TNF reporter robust z-score":-1.22,"outcome":"inactive"}
{"target gene":"BRCA2 (BRCA2 DNA repair associated)","TNF reporter robust z-score":-1.02,"outcome":"inactive"}
{"target gene":"HMGN1 (high mobility group nucleosome binding domain 1)","TNF reporter robust z-score":2.45,"outcome":"inactive"}
{"target gene":"HMGN1 (high mobility group nucleosome binding domain 1)","TNF reporter robust z-score":3.23,"outcome":"active"}
{"target gene":"HMGN1 (high mobility group nucleosome binding domain 1)","TNF reporter robust z-score":3.45,"outcome":"active"}
{"target gene":"HMGN1 (high mobility group nucleosome binding domain 1)","TNF reporter robust z-score":1.26,"outcome":"inactive"}
{"target gene":"ZNF181 (zinc finger protein 181)","TNF reporter robust z-score":-1.03,"outcome":"inactive"}
{"target gene":"ZNF181 (zinc finger protein 181)","TNF reporter robust z-score":-0.61,"outcome":"inactive"}
{"target gene":"ZNF181 (zinc finger protein 181)","TNF reporter robust z-score":-0.53,"outcome":"inactive"}
{"target gene":"PDS5B (PDS5 cohesin associated factor B)","TNF reporter robust z-score":-0.02,"outcome":"inactive"}
{"target gene":"PDS5B (PDS5 cohesin associated factor B)","TNF reporter robust z-score":0.8,"outcome":"inactive"}
{"target gene":"PDS5B (PDS5 cohesin associated factor B)","TNF reporter robust z-score":0.72,"outcome":"inactive"}
{"target gene":"PDS5B (PDS5 cohesin associated factor B)","TNF reporter robust z-score":1.31,"outcome":"inactive"}
{"target gene":"SPARC (secreted protein acidic and cysteine rich)","TNF reporter robust z-score":1.35,"outcome":"inactive"}
{"target gene":"SPARC (secreted protein acidic and cysteine rich)","TNF reporter robust z-score":0.7,"outcome":"inactive"}
{"target gene":"SPARC (secreted protein acidic and cysteine rich)","TNF reporter robust z-score":0.32,"outcome":"inactive"}
{"target gene":"SPARC (secreted protein acidic and cysteine rich)","TNF reporter robust z-score":1.89,"outcome":"inactive"}
{"target gene":"LRP2BP (LRP2 binding protein)","TNF reporter robust z-score":-0.82,"outcome":"inactive"}
{"target gene":"LRP2BP (LRP2 binding protein)","TNF reporter robust z-score":-0.64,"outcome":"inactive"}
{"target gene":"LRP2BP (LRP2 binding protein)","TNF reporter robust z-score":-1.02,"outcome":"inactive"}
{"target gene":"LRP2BP (LRP2 binding protein)","TNF reporter robust z-score":-0.57,"outcome":"inactive"}

Continued, starting with the last 4 of the part before.
{"target gene":"LRP2BP (LRP2 binding protein)","TNF reporter robust z-score":-0.82,"outcome":"inactive"}
{"target gene":"LRP2BP (LRP2 binding protein)","TNF reporter robust z-score":-0.64,"outcome":"inactive"}
{"target gene":"LRP2BP (LRP2 binding protein)","TNF reporter robust z-score":-1.02,"outcome":"inactive"}
{"target gene":"LRP2BP (LRP2 binding protein)","TNF reporter robust z-score":-0.57,"outcome":"inactive"}
{"target gene":"KRTAP10-5 (keratin associated protein 10-5)","TNF reporter robust z-score":0.73,"outcome":"inactive"}
{"target gene":"KRTAP10-5 (keratin associated protein 10-5)","TNF reporter robust z-score":0.89,"outcome":"inactive"}
{"target gene":"KRTAP10-5 (keratin associated protein 10-5)","TNF reporter robust z-score":-0.71,"outcome":"inactive"}
{"target gene":"KRTAP10-5 (keratin associated protein 10-5)","TNF reporter robust z-score":0.4,"outcome":"inactive"}
{"target gene":"ZNF557 (zinc finger protein 557)","TNF reporter robust z-score":-0.06,"outcome":"inactive"}
{"target gene":"ZNF557 (zinc finger protein 557)","TNF reporter robust z-score":0.35,"outcome":"inactive"}
{"target gene":"ZNF557 (zinc finger protein 557)","TNF reporter robust z-score":-0.68,"outcome":"inactive"}
{"target gene":"ZNF557 (zinc finger protein 557)","TNF reporter robust z-score":1.07,"outcome":"inactive"}
{"target gene":"MSH5 (mutS homolog 5)","TNF reporter robust z-score":0.74,"outcome":"inactive"}
{"target gene":"MSH5 (mutS homolog 5)","TNF reporter robust z-score":0.16,"outcome":"inactive"}
{"target gene":"MSH5 (mutS homolog 5)","TNF reporter robust z-score":0.49,"outcome":"inactive"}
{"target gene":"MSH5 (mutS homolog 5)","TNF reporter robust z-score":1.09,"outcome":"inactive"}
{"target gene":"NAT16 (N-acetyltransferase 16 (putative))","TNF reporter robust z-score":1.09,"outcome":"inactive"}
{"target gene":"NAT16 (N-acetyltransferase 16 (putative))","TNF reporter robust z-score":0.41,"outcome":"inactive"}
{"target gene":"NAT16 (N-acetyltransferase 16 (putative))","TNF reporter robust z-score":1.05,"outcome":"inactive"}
{"target gene":"NAT16 (N-acetyltransferase 16 (putative))","TNF reporter robust z-score":1.51,"outcome":"inactive"}
{"target gene":"REPS1 (RALBP1 associated Eps domain containing 1)","TNF reporter robust z-score":-0.52,"outcome":"inactive"}
{"target gene":"REPS1 (RALBP1 associated Eps domain containing 1)","TNF reporter robust z-score":1.02,"outcome":"inactive"}
{"target gene":"REPS1 (RALBP1 associated Eps domain containing 1)","TNF reporter robust z-score":0.61,"outcome":"inactive"}
{"target gene":"REPS1 (RALBP1 associated Eps domain containing 1)","TNF reporter robust z-score":-0.09,"outcome":"inactive"}
{"target gene":"ZMYM6 (zinc finger MYM-type containing 6)","TNF reporter robust z-score":0.06,"outcome":"inactive"}
{"target gene":"ZMYM6 (zinc finger MYM-type containing 6)","TNF reporter robust z-score":-0.37,"outcome":"inactive"}
{"target gene":"ZMYM6 (zinc finger MYM-type containing 6)","TNF reporter robust z-score":-0.31,"outcome":"inactive"}
{"target gene":"ZMYM6 (zinc finger MYM-type containing 6)","TNF reporter robust z-score":-0.16,"outcome":"inactive"}
